Results reported in the supplement of paper PMC10849652.
The other results are listed elsewhere or left out.

Protein sequences, listed by entry. Tags and fused reporters are not part of them. Lines headed by an entry give the natural chain unless they say otherwise; changes in a name come on top.
UniProt Q96QU6: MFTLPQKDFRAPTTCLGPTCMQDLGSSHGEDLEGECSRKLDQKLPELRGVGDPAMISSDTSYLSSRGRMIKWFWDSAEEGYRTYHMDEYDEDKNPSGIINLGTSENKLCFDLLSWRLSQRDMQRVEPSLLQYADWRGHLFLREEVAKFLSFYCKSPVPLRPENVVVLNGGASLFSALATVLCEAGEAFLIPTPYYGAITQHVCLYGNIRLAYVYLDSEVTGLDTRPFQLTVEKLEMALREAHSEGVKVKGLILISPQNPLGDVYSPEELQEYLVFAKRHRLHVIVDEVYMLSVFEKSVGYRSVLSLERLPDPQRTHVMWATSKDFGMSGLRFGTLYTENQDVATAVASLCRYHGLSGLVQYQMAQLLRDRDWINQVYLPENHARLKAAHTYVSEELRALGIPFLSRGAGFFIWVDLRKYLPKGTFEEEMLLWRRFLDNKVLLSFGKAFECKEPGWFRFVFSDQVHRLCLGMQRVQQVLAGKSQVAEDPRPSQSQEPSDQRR
UniProt P42765: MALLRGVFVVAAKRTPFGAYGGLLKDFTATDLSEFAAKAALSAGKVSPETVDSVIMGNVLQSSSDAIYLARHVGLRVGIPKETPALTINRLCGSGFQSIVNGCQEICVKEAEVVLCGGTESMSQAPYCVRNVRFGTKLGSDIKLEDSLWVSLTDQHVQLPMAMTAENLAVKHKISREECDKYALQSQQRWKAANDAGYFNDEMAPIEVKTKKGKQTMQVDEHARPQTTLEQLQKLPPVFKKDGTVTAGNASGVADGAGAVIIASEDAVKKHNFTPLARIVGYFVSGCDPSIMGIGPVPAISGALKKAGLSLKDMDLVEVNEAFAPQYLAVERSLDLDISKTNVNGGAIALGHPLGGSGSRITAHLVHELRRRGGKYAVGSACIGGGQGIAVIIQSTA
UniProt Q9NX38: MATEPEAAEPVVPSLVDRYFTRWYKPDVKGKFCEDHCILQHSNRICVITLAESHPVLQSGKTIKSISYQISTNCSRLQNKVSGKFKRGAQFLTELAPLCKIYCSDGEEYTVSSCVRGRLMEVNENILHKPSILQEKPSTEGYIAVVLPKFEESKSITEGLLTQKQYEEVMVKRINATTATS
UniProt P21399: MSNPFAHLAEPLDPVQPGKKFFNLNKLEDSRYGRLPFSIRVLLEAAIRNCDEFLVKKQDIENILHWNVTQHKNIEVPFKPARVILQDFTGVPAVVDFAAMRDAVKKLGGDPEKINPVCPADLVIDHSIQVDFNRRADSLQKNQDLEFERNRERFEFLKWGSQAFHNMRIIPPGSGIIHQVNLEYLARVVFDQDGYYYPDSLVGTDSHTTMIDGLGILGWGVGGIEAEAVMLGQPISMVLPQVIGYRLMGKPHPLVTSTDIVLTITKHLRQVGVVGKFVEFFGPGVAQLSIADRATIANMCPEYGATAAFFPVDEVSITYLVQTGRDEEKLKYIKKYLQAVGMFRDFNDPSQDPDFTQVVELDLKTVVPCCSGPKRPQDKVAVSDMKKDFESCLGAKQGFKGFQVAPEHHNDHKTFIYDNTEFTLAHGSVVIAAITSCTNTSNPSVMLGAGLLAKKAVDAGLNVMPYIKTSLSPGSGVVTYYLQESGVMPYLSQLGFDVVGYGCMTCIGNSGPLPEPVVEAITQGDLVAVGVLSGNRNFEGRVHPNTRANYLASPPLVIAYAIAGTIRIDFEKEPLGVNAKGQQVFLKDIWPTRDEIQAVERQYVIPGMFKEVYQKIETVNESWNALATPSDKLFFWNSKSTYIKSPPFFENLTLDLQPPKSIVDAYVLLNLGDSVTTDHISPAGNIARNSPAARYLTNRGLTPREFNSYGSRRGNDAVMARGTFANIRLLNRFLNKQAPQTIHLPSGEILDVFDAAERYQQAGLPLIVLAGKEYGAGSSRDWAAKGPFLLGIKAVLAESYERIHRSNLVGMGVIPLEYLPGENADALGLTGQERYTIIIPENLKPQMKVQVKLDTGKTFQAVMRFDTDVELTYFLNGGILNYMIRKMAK
UniProt Q9NYB9: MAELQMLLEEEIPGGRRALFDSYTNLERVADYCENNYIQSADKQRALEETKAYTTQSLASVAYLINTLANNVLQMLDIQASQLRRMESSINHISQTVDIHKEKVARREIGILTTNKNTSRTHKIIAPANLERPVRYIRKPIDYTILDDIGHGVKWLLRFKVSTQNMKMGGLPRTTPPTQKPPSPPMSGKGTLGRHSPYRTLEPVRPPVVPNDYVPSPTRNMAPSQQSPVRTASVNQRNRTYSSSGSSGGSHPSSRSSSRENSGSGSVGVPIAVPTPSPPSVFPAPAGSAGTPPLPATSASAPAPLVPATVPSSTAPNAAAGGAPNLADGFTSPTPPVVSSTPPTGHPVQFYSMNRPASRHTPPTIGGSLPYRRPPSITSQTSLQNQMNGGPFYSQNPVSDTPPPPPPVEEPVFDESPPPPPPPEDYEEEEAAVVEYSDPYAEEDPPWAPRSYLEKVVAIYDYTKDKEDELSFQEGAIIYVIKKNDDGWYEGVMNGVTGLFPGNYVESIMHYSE
UniProt Q5VST6: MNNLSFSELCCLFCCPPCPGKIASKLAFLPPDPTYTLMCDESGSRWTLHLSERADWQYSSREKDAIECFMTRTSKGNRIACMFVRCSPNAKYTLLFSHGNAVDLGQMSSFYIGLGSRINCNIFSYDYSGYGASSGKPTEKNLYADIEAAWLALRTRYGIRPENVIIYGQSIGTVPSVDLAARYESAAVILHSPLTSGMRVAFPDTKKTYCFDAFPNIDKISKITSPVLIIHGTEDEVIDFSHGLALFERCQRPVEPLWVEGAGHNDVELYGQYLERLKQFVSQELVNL
UniProt P24752: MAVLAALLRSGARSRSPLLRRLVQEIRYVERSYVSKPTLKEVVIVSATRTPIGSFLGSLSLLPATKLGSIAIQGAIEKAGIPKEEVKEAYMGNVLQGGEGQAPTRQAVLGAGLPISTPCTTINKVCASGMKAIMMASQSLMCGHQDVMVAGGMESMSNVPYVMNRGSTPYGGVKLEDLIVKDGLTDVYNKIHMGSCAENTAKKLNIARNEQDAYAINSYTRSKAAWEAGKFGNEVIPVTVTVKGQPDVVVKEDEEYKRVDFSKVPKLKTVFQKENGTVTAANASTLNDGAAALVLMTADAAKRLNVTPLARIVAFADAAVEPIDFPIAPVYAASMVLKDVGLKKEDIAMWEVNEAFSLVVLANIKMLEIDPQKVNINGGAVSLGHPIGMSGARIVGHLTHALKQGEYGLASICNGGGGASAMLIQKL
UniProt Q9NUT2: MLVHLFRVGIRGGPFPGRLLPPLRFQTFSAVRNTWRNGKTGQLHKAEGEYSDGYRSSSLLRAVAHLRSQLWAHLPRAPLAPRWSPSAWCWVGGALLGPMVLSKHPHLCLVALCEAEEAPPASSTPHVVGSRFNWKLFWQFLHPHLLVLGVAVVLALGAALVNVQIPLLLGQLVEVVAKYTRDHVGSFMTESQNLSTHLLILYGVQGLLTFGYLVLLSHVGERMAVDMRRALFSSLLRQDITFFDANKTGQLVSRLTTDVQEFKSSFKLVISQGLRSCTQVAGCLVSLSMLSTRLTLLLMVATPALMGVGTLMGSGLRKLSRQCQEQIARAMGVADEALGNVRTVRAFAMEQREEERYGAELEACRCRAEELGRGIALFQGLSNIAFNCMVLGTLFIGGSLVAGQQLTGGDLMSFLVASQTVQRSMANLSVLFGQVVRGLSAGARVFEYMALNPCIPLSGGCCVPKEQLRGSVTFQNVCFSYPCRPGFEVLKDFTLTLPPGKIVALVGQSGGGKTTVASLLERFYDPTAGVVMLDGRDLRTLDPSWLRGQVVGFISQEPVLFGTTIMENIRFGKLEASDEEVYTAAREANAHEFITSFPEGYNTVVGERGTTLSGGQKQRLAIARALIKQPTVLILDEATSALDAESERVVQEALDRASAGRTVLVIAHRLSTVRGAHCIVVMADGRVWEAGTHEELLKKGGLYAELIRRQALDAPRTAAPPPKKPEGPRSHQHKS
UniProt Q8NE71: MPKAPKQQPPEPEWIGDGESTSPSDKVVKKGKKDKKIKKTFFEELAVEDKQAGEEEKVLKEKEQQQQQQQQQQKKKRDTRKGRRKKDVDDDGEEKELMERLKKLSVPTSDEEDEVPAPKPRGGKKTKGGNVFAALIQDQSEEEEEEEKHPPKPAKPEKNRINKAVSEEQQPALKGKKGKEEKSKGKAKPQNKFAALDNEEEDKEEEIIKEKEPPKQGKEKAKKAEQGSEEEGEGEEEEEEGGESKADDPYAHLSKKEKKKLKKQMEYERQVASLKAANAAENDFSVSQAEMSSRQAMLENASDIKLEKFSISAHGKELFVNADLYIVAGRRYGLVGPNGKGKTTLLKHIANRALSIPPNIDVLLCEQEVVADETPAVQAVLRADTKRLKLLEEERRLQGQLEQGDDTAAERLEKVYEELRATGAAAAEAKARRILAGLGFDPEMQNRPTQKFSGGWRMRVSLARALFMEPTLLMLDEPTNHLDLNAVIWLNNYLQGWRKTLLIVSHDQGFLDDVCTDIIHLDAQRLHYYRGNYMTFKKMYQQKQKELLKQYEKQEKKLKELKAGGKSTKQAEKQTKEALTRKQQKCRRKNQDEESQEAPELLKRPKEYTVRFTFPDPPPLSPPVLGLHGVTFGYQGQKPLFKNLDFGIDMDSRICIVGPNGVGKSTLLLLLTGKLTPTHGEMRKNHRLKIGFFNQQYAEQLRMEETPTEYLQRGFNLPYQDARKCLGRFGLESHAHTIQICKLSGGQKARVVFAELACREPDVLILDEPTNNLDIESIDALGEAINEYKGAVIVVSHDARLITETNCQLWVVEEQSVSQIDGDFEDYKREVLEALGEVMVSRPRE
UniProt P16219: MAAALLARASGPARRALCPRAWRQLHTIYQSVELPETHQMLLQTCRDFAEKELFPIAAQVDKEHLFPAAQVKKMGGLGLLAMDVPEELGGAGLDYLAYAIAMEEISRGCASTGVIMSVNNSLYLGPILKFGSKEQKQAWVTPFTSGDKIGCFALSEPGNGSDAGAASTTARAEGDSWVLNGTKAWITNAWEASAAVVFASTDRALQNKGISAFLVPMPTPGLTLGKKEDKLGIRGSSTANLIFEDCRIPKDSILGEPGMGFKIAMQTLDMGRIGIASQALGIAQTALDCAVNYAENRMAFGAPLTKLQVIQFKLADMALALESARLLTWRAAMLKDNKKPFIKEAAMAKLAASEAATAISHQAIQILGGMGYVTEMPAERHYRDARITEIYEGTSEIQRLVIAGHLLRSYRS
UniProt Q9UKV3: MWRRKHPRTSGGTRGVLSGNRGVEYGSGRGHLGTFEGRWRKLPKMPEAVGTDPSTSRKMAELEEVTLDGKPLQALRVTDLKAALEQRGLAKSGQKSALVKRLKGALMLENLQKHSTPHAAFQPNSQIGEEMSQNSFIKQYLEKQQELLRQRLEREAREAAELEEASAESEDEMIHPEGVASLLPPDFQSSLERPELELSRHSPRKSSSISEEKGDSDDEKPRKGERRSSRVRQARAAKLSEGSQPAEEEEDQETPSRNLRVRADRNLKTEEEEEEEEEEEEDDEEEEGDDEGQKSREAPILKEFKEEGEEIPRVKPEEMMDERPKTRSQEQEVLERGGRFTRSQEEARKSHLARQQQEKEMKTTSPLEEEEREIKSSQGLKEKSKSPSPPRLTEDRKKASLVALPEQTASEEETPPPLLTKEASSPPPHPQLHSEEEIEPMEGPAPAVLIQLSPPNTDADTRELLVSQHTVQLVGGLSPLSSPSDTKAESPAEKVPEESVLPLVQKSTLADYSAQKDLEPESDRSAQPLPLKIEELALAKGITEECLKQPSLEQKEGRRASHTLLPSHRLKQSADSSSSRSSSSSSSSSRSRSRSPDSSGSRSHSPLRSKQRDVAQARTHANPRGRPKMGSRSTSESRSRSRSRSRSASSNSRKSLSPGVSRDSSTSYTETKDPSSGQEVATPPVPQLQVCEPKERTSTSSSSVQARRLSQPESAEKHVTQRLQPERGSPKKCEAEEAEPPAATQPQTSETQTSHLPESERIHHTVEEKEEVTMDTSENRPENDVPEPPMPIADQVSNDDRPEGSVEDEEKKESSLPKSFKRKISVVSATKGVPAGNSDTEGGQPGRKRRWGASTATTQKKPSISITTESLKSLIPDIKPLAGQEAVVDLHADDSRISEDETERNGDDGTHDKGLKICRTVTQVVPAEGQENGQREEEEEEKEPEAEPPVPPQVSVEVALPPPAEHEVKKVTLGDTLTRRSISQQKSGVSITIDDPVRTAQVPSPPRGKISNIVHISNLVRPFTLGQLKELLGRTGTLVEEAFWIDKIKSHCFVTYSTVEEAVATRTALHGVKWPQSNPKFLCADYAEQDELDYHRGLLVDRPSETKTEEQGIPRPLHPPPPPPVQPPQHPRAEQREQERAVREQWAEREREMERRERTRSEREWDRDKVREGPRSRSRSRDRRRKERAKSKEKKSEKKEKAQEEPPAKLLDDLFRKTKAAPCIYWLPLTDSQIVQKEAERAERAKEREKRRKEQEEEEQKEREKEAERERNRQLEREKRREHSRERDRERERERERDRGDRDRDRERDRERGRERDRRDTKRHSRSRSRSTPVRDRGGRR

Key:
Assay in all cases: log2 fold change, soluble protein after heating vs DMSO (PISA); higher = thermal stabilisation; K562 lysate, 10 uM; active = over 0.2 and 3.5 SD of the protein, either way, in both replicates (recomputed)
[1] = compound: CCCS(=O)(=O)Nc1ccc(F)c(C(=O)c2c[nH]c3ncc(-c4ccc(Cl)cc4)cc23)c1F [vemurafenib]
Procedure, shortened: (§1)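 A 30 min treatment with 10 μM compound was applied to crude K562 extract at 1 mg/mL protein in PBS pH 7.4 with 1 mM MgCl2. Heating for 3 min spanned 48°C-58°C, after which aliquots were pooled, adjusted to 0.5% NP-40 at 4°C and spun at 21,000xg for 90 min. TMTpro 16plex LC-MS/MS of the supernatant, with channel sums equalised, gave values recorded as log-two fold change in thermal stability against solvent controls, from duplicates.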

[2] = compound: CCCS(=O)(=O)Nc1ccc(F)c(C(=O)c2c[nH]c3ncc(Cl)cc23)c1F
Procedure, shortened: as §1

[3] = compound: CCN(CCCOc1ccc2c(Nc3cc(CC(=O)Nc4cccc(F)c4)[nH]n3)ncnc2c1)CCOP(=O)(O)O [barasertib]
Procedure, shortened: as §1

[4] = compound: CC[C@@H]1C(=O)N(C)c2cnc(Nc3ccc(C(=O)NC4CCN(C)CC4)cc3OC)nc2N1C1CCCC1
Procedure, shortened: as §1

[5] = compound: CC[C@@H]1C(=O)N(C)c2cnc(Nc3ccc(C(=O)N[C@H]4CC[C@H](N5CCN(CC6CC6)CC5)CC4)cc3OC)nc2N1C(C)C [volasertib]
Procedure, shortened: as §1

[6] = compound: CCn1c(C(=O)N(C2CC2)C2CC2)cc2c3c(ncn3C)c(Nc3cc(C)n(C)n3)nc21
Procedure, shortened: as §1

[7] = compound: CCn1cc(-c2ccnc3[nH]c(-c4cccc(CN(C)C)c4)cc23)c(-c2ccc(NC(=O)N(C)C)cc2)n1
Procedure, shortened: as §1

[8] = compound: CN1CCC(CNc2ccc3ncc(-c4cccc(OC(F)(F)F)c4)n3n2)CC1
Procedure, shortened: as §1

[9] = compound: CN1CCN(CCOc2cc(OC3CCOCC3)c3c(Nc4c(Cl)ccc5c4OCO5)ncnc3c2)CC1 [saracatinib]
Procedure, shortened: as §1

[10] = compound: CN1CCN(c2nc(C3=C(c4c[nH]c5ccccc45)C(=O)NC3=O)c3ccccc3n2)CC1 [sotrastaurin]
Procedure, shortened: as §1

Measured: log2 fold change

ABHD4 (UniProt Q8TB40)
inactive: [1] 0.248

ACCS (UniProt Q96QU6)
inactive: [1] 0.182 | [2] 0.039 | [3] 0.04 | [4] 0.022 | [5] 0.029 | [6] -0.171 | [7] -0.221 | [8] 0.09 | [9] 0.06 | [10] -0.023

ACACB (UniProt O00763)
inactive: [1] 0.012 | [2] 0.028 | [3] 0.024 | [4] -0.113 | [5] -0.11 | [6] 0.038 | [7] -0.14 | [8] 0.027 | [9] 0.018 | [10] 0.037

ABCB7 isoform 2 (UniProt O75027)
inactive: [1] 0.043 | [2] -0.02 | [3] 0.018 | [4] -0.07 | [5] 0.014 | [6] 0.041 | [7] -0.078 | [8] -0.061 | [9] 0.014 | [10] 0.007

AAMDC (UniProt Q9H7C9)
inactive: [1] -0.011 | [2] -0.018 | [3] 0.122 | [4] 0.031 | [5] 0.03 | [6] 0.017 | [7] -0.033 | [8] -0.032 | [9] 0.009 | [10] -0.021

A0A0B4J2A0, A0A0B4J2A0
inactive: [1] -0.004 | [2] 0.057 | [3] 0.022 | [4] 0.046 | [5] -0.015 | [6] -0.043 | [7] -0.017 | [8] -0.006 | [9] 0.009 | [10] 0.042

ACAA2 (UniProt P42765)
inactive: [1] -0.025 | [2] -0.002 | [3] -0.007 | [4] 0.057 | [5] 0.021 | [6] -0.021 | [7] -0.018 | [8] 0.039 | [9] 0 | [10] -0.001

ABITRAM (UniProt Q9NX38)
inactive: [1] 0.105 | [2] 0.035 | [3] -0.011 | [4] -0.039 | [5] 0.008 | [6] -0.068 | [7] -0.15 | [8] 0.073 | [9] -0.001 | [10] 0.062

AAAS (UniProt Q9NRG9)
inactive: [1] 0.038 | [2] 0.06 | [3] 0.023 | [4] 0.034 | [5] -0.001 | [6] 0.008 | [7] -0.007 | [8] -0.053 | [9] 0.019 | [10] -0.038

ABRAXAS2 (UniProt Q15018)
inactive: [1] -0.016 | [2] -0.012 | [3] -0.017 | [4] 0.014 | [5] -0.012 | [6] 0.04 | [7] 0.119 | [8] -0.002 | [9] 0.003 | [10] -0.036

ACAT2 (UniProt Q9BWD1)
inactive: [1] 0.02 | [2] -0.006 | [3] -0.04 | [4] 0.017 | [5] 0.012 | [6] -0.028 | [7] 0 | [8] 0.009 | [9] 0.006 | [10] -0.037

ABI1 isoform 9 (UniProt Q8IZP0)
inactive: [1] -0.021 | [2] 0.005 | [3] -0.01 | [4] 0.052 | [5] -0.038 | [6] -0.001 | [7] -0.116 | [8] 0.217 | [9] -0.029 | [10] -0.019

ACO1 (UniProt P21399)
inactive: [1] -0.011 | [2] 0.024 | [3] 0.01 | [4] -0.028 | [5] -0.031 | [6] 0.033 | [7] -0.064 | [8] 0.006 | [9] -0.011 | [10] 0.009

ABI2 (UniProt Q9NYB9)
inactive: [1] -0.033 | [2] 0 | [3] 0.038 | [4] -0.027 | [5] -0.008 | [6] -0.025 | [7] 0.014 | [8] -0.061 | [9] -0.007 | [10] -0.032

ABHD17B (UniProt Q5VST6)
inactive: [1] 0.051 | [2] -0.002 | [3] -0.073 | [4] 0.234 | [5] 0.094 | [6] -0.034 | [7] 0.08 | [8] 0.054 | [9] 0.092 | [10] -0.002

AAK1, A0A096LP25
inactive: [1] -0.017 | [2] 0.018 | [3] -0.012 | [4] 0.114 | [5] 0.042 | [6] -0.009 | [7] -0.069 | [8] 0.36 | [9] 0.046 | [10] 0.023

ABHD14B (UniProt Q96IU4)
inactive: [1] 0.004 | [2] 0.015 | [3] 0.081 | [4] -0.057 | [5] 0.012 | [6] 0.009 | [7] -0.014 | [8] 0 | [9] 0.022 | [10] 0.007

A0A096LPI6, A0A096LPI6
inactive: [1] 0.002 | [2] 0.021 | [3] 0.018 | [4] 0.003 | [5] 0.026 | [6] -0.005 | [7] 0.091 | [8] -0.047 | [9] -0.01 | [10] -0.052

ACAT1 (UniProt P24752)
inactive: [1] 0 | [2] -0.016 | [3] 0.006 | [4] 0.033 | [5] 0.019 | [6] 0.003 | [7] -0.038 | [8] -0.006 | [9] 0.011 | [10] 0.007

ABCB8 (UniProt Q9NUT2)
inactive: [1] 0.047 | [2] 0.037 | [3] 0.113 | [4] -0.064 | [5] -0.019 | [6] 0.002 | [7] 0.036 | [8] -0.004 | [9] -0.007 | [10] 0.046

ABCF1 (UniProt Q8NE71)
inactive: [1] 0.036 | [2] 0.018 | [3] 0.016 | [4] -0.056 | [5] -0.011 | [6] 0.011 | [7] -0.033 | [8] -0.017 | [9] 0.005 | [10] 0.042

AASDHPPT (UniProt Q9NRN7)
inactive: [1] 0.007 | [2] 0 | [3] -0.025 | [4] 0.008 | [5] -0.009 | [6] -0.003 | [7] -0.055 | [8] 0.017 | [9] -0.018 | [10] -0.023

ACADSB (UniProt P45954)
inactive: [1] 0.048 | [2] 0.018 | [3] 0.024 | [4] 0.017 | [5] -0.03 | [6] 0.015 | [7] 0.011 | [8] -0.012 | [9] -0.185 | [10] 0.031

ABLIM1 (UniProt O14639)
inactive: [1] 0.014 | [2] 0.013 | [3] 0.129 | [4] 0.073 | [5] 0.011 | [6] 0.093 | [7] -0.17 | [8] 0.117 | [9] -0.008 | [10] -0.028

A2M (UniProt P01023)
inactive: [1] 0.059 | [2] 0.063 | [3] -0.032 | [4] 0.041 | [5] -0.008 | [6] -0.06 | [7] -0.042 | [8] 0.038 | [9] 0.006 | [10] -0.074

ACADS (UniProt P16219)
inactive: [1] 0.023 | [2] 0.017 | [3] 0.006 | [4] -0.039 | [5] -0.016 | [6] -0.02 | [7] 0.016 | [8] 0.003 | [9] -0.026 | [10] -0.026

ABL2 (UniProt P42684)
inactive: [1] 0.233 | [2] 0.222 | [3] -0.002 | [4] 0.11 | [5] -0.05 | [6] 0.009 | [7] 0.039 | [8] -0.128 | [9] 0.254 | [10] -0.02

ACIN1 (UniProt E7EQT4)
inactive: [1] -0.057 | [2] 0.026 | [3] -0.021 | [4] -0.011 | [5] 0.045 | [6] 0.048 | [7] -0.321 | [8] 0.127 | [9] -0.016 | [10] 0.047

ACIN1 isoform 5 (UniProt Q9UKV3)
inactive: [1] 0.014 | [2] 0.024 | [3] 0.009 | [4] -0.016 | [5] 0 | [6] -0.018 | [7] 0.067 | [8] -0.01 | [9] 0.006 | [10] 0.014

ACLY (UniProt P53396)
inactive: [1] 0.017 | [2] 0.01 | [3] -0.003 | [4] -0.035 | [5] -0.031 | [6] -0.003 | [7] -0.049 | [8] 0.026 | [9] -0.007 | [10] 0.016
